Measured values as given in US20250009744A1, “USE OF METABOLIC REGULATORS FOR THE TREATMENT OF LIPOTOXICITY IN THE LUNGS” (YISSUM RESEARCH DEVELOPMENT COMPANY OF THE HEBREW …, priority 2021, published 2025).
Read-outs that look alike come from different tables or passages of the source. At least one structure is not confirmed: it was looked up by name or label, or the drawing left a doubt.

Experiments:
[1] = tested on: Bronchial epithelial cells; assay: Lipid accumulation (HCS LipidTOX phospholipidosis and steatosis staining) in lung cells after lipogenic induction; format: cell-based, human
[2] = tested on: CCL20, CXCL1, CXCL2, CXCL5, GCSF, IL-1b, IL-6, IL-8, NFKB, SAA2, and TNFα expression in bronchial epithelial cells; conditions: 10 μM rosiglitazone and 100 μM oleic acid for 5 days, against control, n=6, p<0.05

| SMILES | increase in phospholipids ([1]; 10 μM rosiglitazone and 100 μM oleic acid for 5 days, compared to untreated cells, n=6, p<0.001) [%] | increase in triglycerides ([1]; 10 μM rosiglitazone and 100 μM oleic acid for 5 days, compared to untreated cells, n=6, p<0.05) [%] | expression of markers of immunoinflammatory stress response (chemokines, cytokines, inflammation markers) [2] | expression of markers of immunoinflammatory stress response (chemokines, cytokines, inflammation markers) ([2]; listed as Rosiglitazone) | reversal of lipid accumulation (triglycerides and phospholipids) ([1]; 20 μM fenofibrate added to 10 μM rosiglitazone and 100 μM oleic acid, 5 days) |
| --- | --- | --- | --- | --- | --- |
| CN(CCOc1ccc(CC2SC(=O)NC2=O)cc1)c1ccccn1 (centres unmarked) [rosiglitazone] | 75 | 65 | significant upregulation | upregulation | – |
| CC(C)OC(=O)C(C)(C)Oc1ccc(C(=O)c2ccc(Cl)cc2)cc1 [fenofibrate] | – | – | – | – | completely reversed |
